No constants are given. Whether binding was seen depends on the method and setting. Binding seen in cells or lysates may run through a third protein. Binding calls can cover weak binding; strength is not graded here. Sequences can lack the tags named with a protein.

Sequences of proteins named here, by UniProt entry; tags and fusion partners are left off. A change or cut given only in a name is not applied to a line headed by its entry.
UniProt Q00987: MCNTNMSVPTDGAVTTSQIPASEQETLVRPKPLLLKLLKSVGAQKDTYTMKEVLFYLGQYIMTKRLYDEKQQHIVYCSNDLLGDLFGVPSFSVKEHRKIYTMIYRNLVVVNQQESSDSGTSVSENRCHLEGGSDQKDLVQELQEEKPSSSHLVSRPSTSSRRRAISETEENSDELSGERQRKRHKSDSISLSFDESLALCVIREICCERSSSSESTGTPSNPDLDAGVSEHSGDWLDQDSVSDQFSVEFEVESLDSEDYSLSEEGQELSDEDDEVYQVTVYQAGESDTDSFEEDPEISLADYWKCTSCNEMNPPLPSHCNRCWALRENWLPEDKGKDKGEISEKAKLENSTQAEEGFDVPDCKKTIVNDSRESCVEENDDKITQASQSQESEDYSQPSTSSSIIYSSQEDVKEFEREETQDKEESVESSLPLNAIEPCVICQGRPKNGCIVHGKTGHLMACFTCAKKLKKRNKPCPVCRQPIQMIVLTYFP

The assay deals with T1, Flag-KL (Flag-tagged Klotho) (human) (UniProt Q9UEF7).
T1 sequence: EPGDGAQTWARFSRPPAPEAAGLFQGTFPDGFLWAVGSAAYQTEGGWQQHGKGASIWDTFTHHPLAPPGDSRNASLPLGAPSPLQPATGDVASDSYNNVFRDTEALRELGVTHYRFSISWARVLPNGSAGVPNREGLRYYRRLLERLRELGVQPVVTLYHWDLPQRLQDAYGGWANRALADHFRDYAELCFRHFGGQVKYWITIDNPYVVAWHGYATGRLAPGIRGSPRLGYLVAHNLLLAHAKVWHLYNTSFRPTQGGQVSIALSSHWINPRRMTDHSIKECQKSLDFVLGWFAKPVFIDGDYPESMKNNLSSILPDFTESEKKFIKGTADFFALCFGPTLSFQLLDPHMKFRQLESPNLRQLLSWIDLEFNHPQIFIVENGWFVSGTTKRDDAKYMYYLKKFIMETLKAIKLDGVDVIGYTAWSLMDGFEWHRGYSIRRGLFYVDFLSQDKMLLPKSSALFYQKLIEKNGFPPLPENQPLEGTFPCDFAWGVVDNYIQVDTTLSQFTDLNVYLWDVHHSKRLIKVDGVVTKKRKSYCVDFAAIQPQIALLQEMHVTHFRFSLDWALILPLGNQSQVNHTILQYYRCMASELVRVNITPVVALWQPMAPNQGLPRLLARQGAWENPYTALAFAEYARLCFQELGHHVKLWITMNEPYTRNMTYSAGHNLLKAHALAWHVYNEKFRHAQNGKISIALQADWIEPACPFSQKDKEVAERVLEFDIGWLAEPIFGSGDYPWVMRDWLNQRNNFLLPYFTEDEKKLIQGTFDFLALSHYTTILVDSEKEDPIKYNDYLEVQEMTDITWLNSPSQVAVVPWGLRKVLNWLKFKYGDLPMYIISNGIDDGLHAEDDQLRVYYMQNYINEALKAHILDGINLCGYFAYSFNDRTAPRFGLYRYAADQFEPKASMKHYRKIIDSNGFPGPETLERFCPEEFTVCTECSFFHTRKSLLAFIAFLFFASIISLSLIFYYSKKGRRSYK
Kind of assay: co-IP; transfected A549 cells (the text says HEK-293 for Fig. 5A); lysate in TNE buffer or IP buffer (50 mM Tris-HCl, 2 mM EDTA, 250 mM NaCl, 10% glycerol, 0.5% NP-40); IP with anti-FLAG, anti-HA or anti-Myc and Protein G agarose overnight at 4 °C; immunoblot; some samples with SHANK1 overexpression, sh/si-SHANK1 or si-MDM2. (In general: Immunoblotting shows a protein as a band on a membrane.)

As for MDM2-HA (from UniProt Q00987), the binding entry is on record as “binds”.

The values above are taken from publication PMC9039064.
